From PubChem BioAssay AID485314 (National Center for Advancing Translational Sciences (NCATS), 2010)
The whole screen tested about 340,000 compounds, of which about 4,500 (1.3%) were called active. The inconclusive results got no clear call from the source; some entries with a clear call stand among them for comparison. Calls come from the whole dose curve; as a rule, active = well fitted inhibition curve with a large enough effect; inconclusive = small, poorly fitted or top-dose-only effect, or another doubt; inactive = no such curve, though single readings can be large or run the other way. Potencies of inconclusive entries are doubtful fits and often do not repeat.

Biological target: DNA polymerase beta (Homo sapiens) (UniProt P06746)
Assay: qHTS Assay for Inhibitors of DNA Polymerase Beta
Details: Pol beta primer extension/strand displacement, fluorescence kinetic; activity change, negative = inhibition: at 114 µM (top of the series)
Summary of the method: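 Reaction started by 50 nM substrate onto compound-treated Pol beta (10 nM, 15 min preincubation, room temperature); plates read at 0 min and 10 min. Normalized concentration-effect data fitted by four-parameter Hill equation.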
% is set by controls: 0 for no effect and ±100 for the full control effect; potency is the fitted concentration of half-maximal effect.

Row | Structure (SMILES) | Potency | activity change, negative = inhibition
1 | CCOC(=O)CN1C(=O)S/C(=C/c2ccc(OCc3ccc(C(=O)O)cc3)cc2)C1=O | inconclusive: 70.8 µM [inhibitor, single point] | 
2 | COc1cccc(N=Nc2c(=O)[nH]n3c(=O)c4c([nH]c23)CCC4)c1 | inconclusive: 89.1 µM [inhibitor, single point] | 
3 | N#Cc1c(-c2ccccc2)nc(SCc2ccc(Cl)cc2)[nH]c1=O | inconclusive: 79.4 µM [inhibitor, single point] | 
4 | O=c1c2ccccc2c(C=NCc2ccccn2)c(O)n1-c1ccccc1 | inactive | 
5 | CCOc1ccc(-c2nc3c(c(SCC(=O)N4CCCCC4)n2)Cc2cccc(OC)c2O3)cc1 | inactive | 
6 | CCCn1ncc(CN2CCN(CCc3ccccc3)C(CCO)C2)c1C (stereo not drawn) | inconclusive: 3.16 µM [inhibitor, single point] | 
7 | O=C(CSc1nc(O)cc(=O)[nH]1)Nc1ccc2c(c1)CCC2 | inconclusive: 17.8 µM [inhibitor, full curve] | 
8 | COc1ccc2cc3c(N)nn(C(=O)c4ccc(OC)c(OC)c4)c3nc2c1 | active: 15.8 µM | 
9 | Cc1ccc(-c2nnc(-c3ccccc3)o2)cc1 | inconclusive: 79.4 µM [inhibitor, single point] | 
10 | N#Cc1ccc(CSc2nnc(NC(=O)c3ccc(=O)[nH]c3)s2)cc1 | inconclusive: 31.6 µM [inhibitor, full curve] | 
11 | CCOC(=O)c1c(NC(N)=O)nc2n1CCC2 | inconclusive: 79.4 µM [inhibitor, single point] | 
12 | CSCCOC(=O)c1[nH]c2c(c1C)C(=O)CC(c1ccco1)C2 (stereo not drawn) | active: 7.94 µM | 
13 | Cc1occc1C(=O)NC(C)C1CCCO1 (stereo not drawn) | inconclusive: 89.1 µM [inhibitor, single point] | 
14 | COC(=O)N/N=C/c1c(C)nn(-c2cccc(Cl)c2)c1Cl | inconclusive: 35.5 µM [inhibitor, single point] | 
15 | COc1ccccc1C(=O)Nc1cccc(NC(=O)c2ccccc2C)c1 | inconclusive: 10 µM [inhibitor, partial curve] | 
16 | CCCn1c2ccccc2c2cnn(CC(=O)N3CCN(c4ccccc4)CC3)c(=O)c21 | inactive | 
17 | O=C(Nc1ccccc1-c1nc2ccccc2[nH]c1=O)c1cccs1 | inconclusive: 56.2 µM [inhibitor, single point] | 
18 | CN1CCN(C(=O)/C=C/c2ccccc2)CC1 | inconclusive: 22.4 µM [inhibitor, partial curve] | 
19 | CCc1ccc(NS(=O)(=O)c2ccc3[nH]cc(C(=O)NCCCOC(C)C)c(=O)c3c2)cc1 | active: 39.8 µM | 
20 | CC(C)c1nc2ccc(C(=O)Nc3ccccc3F)cc2o1 | inactive | 
21 | CCCn1c(=N)c(C(=O)NCc2ccc3c(c2)OCO3)cc2c(=O)n3cccc(C)c3nc21 | inconclusive: 89.1 µM [inhibitor, single point] | 
22 | Cc1coc2c1C(=O)C(=O)c1c-2ccc2c(C)cccc12 | active: 20 µM | 
23 | CCOC(=O)CSC1=C(C#N)C(=O)NC2(CCCCC2)S1 | inactive | 
24 | CCOC(=O)CC(=O)CSc1nc(C)nc2c1oc1ccccc12 | inconclusive: 50.1 µM [inhibitor, partial curve] | 
25 | COc1ccccc1OC(C)C(=O)Nc1cccc(-c2nc3ccccc3o2)c1 (stereo not drawn) | active: 50.1 µM | 

Row | Structure (SMILES) | Potency | activity change, negative = inhibition
26 | CN(C)c1ccc(NC(=O)CSc2nc3c(c(=O)[nH]2)CCCC3)cc1 | inconclusive: 7.08 µM [inhibitor, single point] | 
27 | Cc1cc(C)n2c(=S)[nH]nc2n1 | inactive | 
28 | CC(=O)Nc1ccc(OS(=O)(=O)c2ccc([N+](=O)[O-])cc2)cc1 | inactive | 
29 | Cc1ccc(NC(=O)Cc2coc3ccc(C(C)C)cc23)cc1Cl | inactive | 
30 | COc1ccc2c(CSc3nc4nc(C)cc(C)n4n3)cc(=O)oc2c1 | inconclusive: 7.08 µM [inhibitor, full curve] | 
31 | COc1ccc(C(O)(C(=O)NNc2ccc(C)cc2)c2cccs2)cc1 (stereo not drawn) | inconclusive: 79.4 µM [inhibitor, single point] | 
32 | COc1ccc(NC(=O)c2oc3ccccc3c2NC(=O)COc2ccc(C(C)C)cc2)c(OC)c1 | inactive | 
33 | Cc1cc(C)c(NC(=O)COC(=O)C2CCC2)c(Cl)c1 | inconclusive: 0.501 µM [inhibitor, full curve, poor fit] | 
34 | c1ccc2c(c1)OCC(c1csc3ncnc(N4CCCCC4)c13)O2 (stereo not drawn) | inconclusive: 100 µM [inhibitor, single point] | 
35 | Cc1csc(NC(=O)c2sc3nc(-c4cccs4)ccc3c2N)n1 | inconclusive: 14.1 µM [inhibitor, full curve] | 
36 | CCOC(=O)C1=C(CN2CCN(c3cccc(Cl)c3)CC2)NC(=O)NC1c1ccc(Cl)cc1 (stereo not drawn) | inactive | 
37 | Cc1sc(NC(=O)/C=C/c2ccco2)c(C(=O)OC(C)C)c1C | inconclusive: 17.8 µM [inhibitor, partial curve, poor fit] | 
38 | CC(C)(C)c1ccc(OCc2nnc(-c3ccccc3)o2)cc1 | inconclusive: 79.4 µM [inhibitor, single point] | 
39 | Nc1c(C=C2C=CC(=O)C=C2)c(=O)nc2snc(SCc3ccccc3)n12 | inconclusive: 79.4 µM [inhibitor, single point] | 
40 | Cc1ccc(CSc2nnc3[nH]c(=O)cc(-c4ccccc4)n23)cc1 | inactive | 
41 | Cn1c(CN2CCN(c3ccc(Cl)cc3)CC2)nc2ccccc21 | inconclusive: 2.82 µM [inhibitor, single point] | 
42 | COC(=O)c1sccc1S(=O)(=O)N(CC(=O)NCc1ccc(C)cc1)c1ccc(C)cc1 | inactive | 
43 | COc1cccc(/C=N/NC(=O)c2ccc(N3CCCC3=O)cc2)c1 | active: 25.1 µM | 
44 | O=c1cc(CN2CCN(S(=O)(=O)/C=C/c3ccccc3)CC2)c2ccc(O)cc2o1 | inconclusive: 22.4 µM [inhibitor, full curve] | 
45 | Clc1ccccc1Nc1nnc(-c2ccncc2)s1 | inactive | 
46 | Cc1c(NC(=O)C2Cc3ccccc3CN2C(=O)c2ccco2)c(=O)n(-c2ccccc2)n1C (stereo not drawn) | inconclusive: 100 µM [inhibitor, single point] | 
47 | COc1ccc(NS(=O)(=O)c2c(C)[nH]c(C)c2C(=O)N2CCCCC2)cc1Cl | inactive | 
48 | CC(CC(=O)Nc1ccc2c(c1)OCCO2)c1ccccc1 (stereo not drawn) | inconclusive: 89.1 µM [inhibitor, single point] | 
49 | CC(=O)Nc1ccc(S(=O)(=O)NCCc2ccc(F)cc2)cc1 | inconclusive: 89.1 µM [inhibitor, single point] | 
50 | NC(=O)c1c(NC(=O)CSc2nnc(-c3ccco3)n2-c2ccccc2)sc2c1CCC2 | active: 4.47 µM | 

In the list so far, 10 contain an aryl methoxy group.
Row | Structure (SMILES) | Potency | activity change, negative = inhibition
2 | COc1cccc(N=Nc2c(=O)[nH]n3c(=O)c4c([nH]c23)CCC4)c1 | inconclusive: 89.1 µM [inhibitor, single point] | 
5 | CCOc1ccc(-c2nc3c(c(SCC(=O)N4CCCCC4)n2)Cc2cccc(OC)c2O3)cc1 | inactive | 
8 | COc1ccc2cc3c(N)nn(C(=O)c4ccc(OC)c(OC)c4)c3nc2c1 | active: 15.8 µM | 
15 | COc1ccccc1C(=O)Nc1cccc(NC(=O)c2ccccc2C)c1 | inconclusive: 10 µM [inhibitor, partial curve] | 
25 | COc1ccccc1OC(C)C(=O)Nc1cccc(-c2nc3ccccc3o2)c1 (stereo not drawn) | active: 50.1 µM | 
30 | COc1ccc2c(CSc3nc4nc(C)cc(C)n4n3)cc(=O)oc2c1 | inconclusive: 7.08 µM [inhibitor, full curve] | 
31 | COc1ccc(C(O)(C(=O)NNc2ccc(C)cc2)c2cccs2)cc1 (stereo not drawn) | inconclusive: 79.4 µM [inhibitor, single point] | 
32 | COc1ccc(NC(=O)c2oc3ccccc3c2NC(=O)COc2ccc(C(C)C)cc2)c(OC)c1 | inactive | 
43 | COc1cccc(/C=N/NC(=O)c2ccc(N3CCCC3=O)cc2)c1 | active: 25.1 µM | 
47 | COc1ccc(NS(=O)(=O)c2c(C)[nH]c(C)c2C(=O)N2CCCCC2)cc1Cl | inactive | 

Single records, as listed above:
Cn1c(CN2CCN(c3ccc(Cl)cc3)CC2)nc2ccccc21 in the list: Potency: inconclusive: 2.82 µM [inhibitor, single point]
COc1ccc(NC(=O)c2oc3ccccc3c2NC(=O)COc2ccc(C(C)C)cc2)c(OC)c1 in the list: Potency: inactive

Further structures

Row | Structure (SMILES) | Potency | activity change, negative = inhibition
51 | COc1ccc(N(CC(=O)Nc2cc(Cl)ccc2C)S(=O)(=O)c2c(C)n[nH]c2C)cc1 | inactive | 
52 | CCCN(C(=O)c1cc2c(s1)CCC2)c1c(N)n(Cc2ccccc2)c(=O)[nH]c1=O | active: 10 µM | 
53 | c1coc(-c2nc3n(n2)C2(CCCCC2)[C@@H]2CCCC[C@@H]2N3)c1 | inconclusive: 89.1 µM [inhibitor, single point] | 
54 | COC(=O)c1cc(OC)cc(O)c1C(=O)c1c(O)cc(C)cc1O | inconclusive: 63.1 µM [inhibitor, partial curve] | 
55 | Cc1c(Cl)cccc1NC(=S)NCCC(c1ccccc1)c1ccccc1 | inactive | 
56 | Cc1nnc(N/N=C/c2ccc(-c3ccc(Br)cc3)o2)n1N | inconclusive: 56.2 µM [inhibitor, partial curve, poor fit] | 
57 | CC1(C)C(=O)Nc2ccccc2N1C(=O)COC(=O)C12CC3CC(CC(O)(C3)C1)C2 | active: 20 µM | 
58 | CC(=O)c1ccc(NC(=O)CSc2ccc3nnc(-c4ccccn4)n3n2)cc1 | active: 50.1 µM | 
59 | CCN(c1ccc(OC)cc1)S(=O)(=O)c1nnc(NC(=O)COc2ccccc2)s1 | inconclusive: 2.24 µM [inhibitor, single point] | 
60 | Cc1ccc(CCNC(=O)c2ccc3c(c2)N(Cc2cccc(Cl)c2)C(=O)c2ccccc2S3(=O)=O)cc1 | inactive | 
61 | Cc1ccc(Nc2nc(N)c([N+](=O)[O-])c(NCCO)n2)cc1C |  | inconclusive: -30.4% [inhibitor]
62 | CCN(C(=O)CSc1nc(-c2ccc(C(C)C)cc2)no1)c1cccc(C)c1 | inactive | 
63 | Cc1ccnc(-n2sc3ccccc3c2=O)n1 | inconclusive: 0.1 µM [inhibitor, full curve, poor fit] | 
64 | COc1ccc(OC)c(NS(=O)(=O)c2ccc(-c3cc(C)no3)s2)c1 | inactive | 
65 | CC(C)c1cnc2c(c1SCC(=O)Nc1cccc(F)c1)c(=O)n(C)c(=O)n2C | inactive | 
66 | CN(C)CCn1c(SCc2ccccc2C#N)nc2c(sc3ccccc32)c1=O | inactive | 
67 | CCOc1ccc(C(=O)NC(=S)Nc2ccccc2N2CCC(C)CC2)cc1[N+](=O)[O-] | inactive | 
68 | O=C(CCc1nnc2ccc(NCc3ccco3)nn12)Nc1cccc(F)c1 | inconclusive: 56.2 µM [inhibitor, partial curve] | 
69 | CCOC(=O)c1cc(OC(=O)c2ccccc2C)n(-c2ccccc2)n1 | inactive | 
70 | COc1ccc(/C=N\NC(=O)c2c(C)nc3ccc(Br)cn23)cc1 | inconclusive: 89.1 µM [inhibitor, partial curve, poor fit] | 
71 | Cc1cc(C)c(S(=O)(=O)Nc2ccc(O)c(Sc3ncn[nH]3)c2)c(C)c1 | inconclusive: 63.1 µM [inhibitor, single point] | 
72 | COc1cccc(N2CCN(C(=O)CCS(=O)(=O)c3ccc4c(c3)oc(=O)n4C)CC2)c1 | inconclusive: 1.26 µM [inhibitor, single point] | 
73 | CC(CN1CCCC1)OC(=O)C(c1ccccc1)c1ccccc1 (stereo not drawn) | inconclusive: 7.08 µM [inhibitor, partial curve, poor fit] | 
